{"source": "the supplement of paper PMC9135407", "tested_on": "primary human hepatic stellate cells (donor 1)", "test": "percent Bodipy-positive cells; higher = more lipid droplet accumulation", "details": "48 h", "key": {"[1]": {"details": "library stock concentration: 10 mM"}, "[2]": {"details": "library stock concentration: 1 mM"}, "[3]": {"details": "library stock concentration: 3.33 mM"}, "[4]": {"details": "library stock concentration: 5.3 mM"}, "[5]": {"details": "library stock concentration: 80 uM"}, "[6]": {"details": "library stock concentration: 400 uM"}, "[7]": {"details": "library stock concentration: 2 mM"}}, "note": "Values joined by “and” are separate entries in the source; they are usually repeats but may differ in a detail not shown here. Equal entries are not always repeated. Structures can show the parent of a compound that is named as a salt. ± gives the standard deviation of the averaged measurements. This is one part of the list. Baselines shift from plate to plate; read single values as rough.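 Assay uses culture-activated primary human stellate myofibroblasts; lipid droplet recovery indicates inactivation. Measured: proportion of Hoechst-counted cells over a plate-specific Bodipy cutoff, duplicate wells, DMSO and nortriptyline as per-plate negative and positive controls. A hit scores, control-normalized, above the plate's top-tenth-percentile nortriptyline wells or ranks among its three best wells. Final well concentrations not reported.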"}
{"smiles": "COc1ccccc1OCC(O)CN1CCN(CC(=O)Nc2c(C)cccc2C)CC1", "note": "(configuration not stated) [Ranolazine dihydrochloride]", "values": [{"measurement": "percent Bodipy-positive cells", "setting": "[1]", "value": "8.19% and 14.5%"}]}
{"smiles": "O=[N+]([O-])c1cccc2cn[nH]c12", "values": [{"measurement": "percent Bodipy-positive cells", "setting": "[1]", "value": "5.88 ± 0.27", "unit": "%"}]}
{"smiles": "O=P(O)(O)O[C@H]1[C@H](O)[C@@H](O)[C@H](OP(=O)(O)O)[C@@H](OP(=O)(O)O)[C@H]1O", "note": "[D-myo-Inositol-1,3,4-triphosphate (sodium salt)]", "values": [{"measurement": "percent Bodipy-positive cells", "setting": "[2]", "value": "7.74 ± 3.6", "unit": "%"}]}
{"smiles": "COc1cc([C@@H]2c3cc4c(cc3[C@@H](O[C@@H]3O[C@@H]5CO[C@@H](C)O[C@H]5[C@H](O)[C@H]3O)[C@H]3COC(=O)[C@H]23)OCO4)cc(OC)c1O", "note": "[Etoposide]", "values": [{"measurement": "percent Bodipy-positive cells", "value": "31.86 ± 0.17", "unit": "%"}, {"measurement": "percent Bodipy-positive cells", "setting": "[3]", "value": "15.9 ± 1.4", "unit": "%"}]}
{"smiles": "NC(=O)C(c1ccccc1)(c1ccccc1)[C@@H]1CCN(CCc2ccc3c(c2)CCO3)C1", "values": [{"measurement": "percent Bodipy-positive cells", "setting": "[1]", "value": "59.4 ± 1.1", "unit": "%"}]}
{"smiles": "NC(=O)C(c1ccccc1)(c1ccccc1)[C@@H]1CCN(CCc2ccc3c(c2)CCO3)C1", "note": "[Darifenacin HBr]", "values": [{"measurement": "percent Bodipy-positive cells", "setting": "[3]", "value": "36.8 ± 11", "unit": "%"}]}
{"smiles": "CCCNCC(O)COc1ccccc1C(=O)CCc1ccccc1", "note": "(configuration not stated) [Propafenone]", "values": [{"measurement": "percent Bodipy-positive cells", "setting": "library stock concentration: 5.9 mM", "value": "42.1 ± 1.2", "unit": "%"}]}
{"smiles": "CCCNCC(O)COc1ccccc1C(=O)CCc1ccccc1", "note": "(configuration not stated) [Propafenone HCl]", "values": [{"measurement": "percent Bodipy-positive cells", "setting": "[3]", "value": "44.8 ± 17", "unit": "%"}, {"measurement": "percent Bodipy-positive cells", "setting": "[1]", "value": "66.5 ± 11", "unit": "%"}]}
{"smiles": "CCCNCC(O)COc1ccccc1C(=O)CCc1ccccc1", "note": "(configuration not stated) [Propafenone hydrochloride]", "values": [{"measurement": "percent Bodipy-positive cells", "value": "72.2 ± 8.2", "unit": "%"}, {"measurement": "percent Bodipy-positive cells", "setting": "[4]", "value": "52.1 ± 6.6", "unit": "%"}, {"measurement": "percent Bodipy-positive cells", "setting": "[1]", "value": "73.8 ± 13", "unit": "%"}]}
{"smiles": "CCCNCC(O)COc1ccccc1C(=O)CCc1ccccc1", "note": "(configuration not stated) [Rythmol]", "values": [{"measurement": "percent Bodipy-positive cells", "setting": "[1]", "value": "85.1 ± 3.6", "unit": "%"}]}
{"smiles": "CCCCCCCCCCCCCCCCCC(=O)OC(CC(=O)O)C[N+](C)(C)C", "note": "(racemic) [DL-Stearoylcarnitine chloride]", "values": [{"measurement": "percent Bodipy-positive cells", "setting": "[1]", "value": "48 ± 13", "unit": "%"}]}
{"smiles": "O=C1c2ccc(Nc3ccc(F)cc3F)cc2CCc2ccc(OC[C@H](O)CO)cc21", "note": "[Skepinone-L]", "values": [{"measurement": "percent Bodipy-positive cells", "setting": "[3]", "value": "43 ± 9.4", "unit": "%"}, {"measurement": "percent Bodipy-positive cells", "setting": "[1]", "value": "66.2 ± 12", "unit": "%"}]}
{"smiles": "C[C@H]1C[C@@H]2[C@H]([C@@H](O)C[C@@]3(C)[C@H]2CC[C@]3(O)C(=O)CO)[C@@]2(C)C=CC(=O)C=C12", "note": "[Methylprednisolone, 6-alpha]", "values": [{"measurement": "percent Bodipy-positive cells", "value": "26.09 ± 0.12", "unit": "%"}]}
{"smiles": "C[C@H]1C[C@@H]2[C@H]([C@@H](O)C[C@@]3(C)[C@H]2CC[C@]3(O)C(=O)CO)[C@@]2(C)C=CC(=O)C=C12", "note": "[Methylprednisolone]", "values": [{"measurement": "percent Bodipy-positive cells", "setting": "[3]", "value": "6.55 ± 1.2", "unit": "%"}, {"measurement": "percent Bodipy-positive cells", "setting": "[4]", "value": "4.82% and 2.96%"}, {"measurement": "percent Bodipy-positive cells", "setting": "[1]", "value": "17.9% and 4.74%"}]}
{"smiles": "C[C@H]1C[C@@H]2[C@H]([C@@H](O)C[C@@]3(C)[C@H]2CC[C@]3(O)C(=O)CO)[C@@]2(C)C=CC(=O)C=C12", "values": [{"measurement": "percent Bodipy-positive cells", "setting": "[1]", "value": "33.2 ± 12", "unit": "%"}]}
{"smiles": "O=C1CC2(CCCC2)CC(=O)N1CCCCN1CCN(c2ncccn2)CC1", "note": "[Buspar]", "values": [{"measurement": "percent Bodipy-positive cells", "setting": "[1]", "value": "47.5 ± 2.6", "unit": "%"}]}
{"smiles": "O=C1CC2(CCCC2)CC(=O)N1CCCCN1CCN(c2ncccn2)CC1", "note": "[Buspirone hydrochloride]", "values": [{"measurement": "percent Bodipy-positive cells", "setting": "library stock concentration: 4.7 mM", "value": "9.93 ± 1", "unit": "%"}]}
{"smiles": "O=C1CC2(CCCC2)CC(=O)N1CCCCN1CCN(c2ncccn2)CC1", "note": "[Buspirone HCl]", "values": [{"measurement": "percent Bodipy-positive cells", "setting": "[3]", "value": "24 ± 1.9", "unit": "%"}, {"measurement": "percent Bodipy-positive cells", "setting": "library stock concentration: 5.2 mM", "value": "16.3 ± 0.91", "unit": "%"}, {"measurement": "percent Bodipy-positive cells", "setting": "[1]", "value": "14.2 ± 1.1", "unit": "%"}]}
{"smiles": "CC[C@H]1OC(=O)[C@H](C)[C@@H](O[C@H]2C[C@@](C)(OC)[C@@H](O)[C@H](C)O2)[C@H](C)[C@@H](O[C@@H]2O[C@H](C)C[C@H](N(C)C)[C@H]2O)[C@](C)(O)C[C@@H](C)[C@@H]2N[C@@H](COCCOC)O[C@H]([C@H]2C)[C@]1(C)O", "note": "[Dirithromycin]", "values": [{"measurement": "percent Bodipy-positive cells", "value": "23.99 ± 0.044", "unit": "%"}, {"measurement": "percent Bodipy-positive cells", "setting": "[3]", "value": "21.3 ± 0.95", "unit": "%"}, {"measurement": "percent Bodipy-positive cells", "setting": "[1]", "value": "45.4% and 52.8%"}]}
{"smiles": "Cc1cc(C)c(/C=C2\\C(=O)Nc3ccccc32)[nH]1", "note": "[VEGF Receptor 2 Kinase Inhibitor III]", "values": [{"measurement": "percent Bodipy-positive cells", "setting": "[3]", "value": "13.1 ± 1.8", "unit": "%"}]}
{"smiles": "Cc1cc(C)c(/C=C2\\C(=O)Nc3ccccc32)[nH]1", "note": "[Semaxanib (SU5416)]", "values": [{"measurement": "percent Bodipy-positive cells", "setting": "[3]", "value": "6.75 ± 4.5", "unit": "%"}, {"measurement": "percent Bodipy-positive cells", "setting": "[1]", "value": "28.9 ± 2.2", "unit": "%"}]}
{"smiles": "Cc1cc(C)c(/C=C2\\C(=O)Nc3ccccc32)[nH]1", "values": [{"measurement": "percent Bodipy-positive cells", "setting": "[2]", "value": "8.29 ± 0.88", "unit": "%"}, {"measurement": "percent Bodipy-positive cells", "setting": "[1]", "value": "16.7% and 4.21%"}]}
{"smiles": "O=C(NOC[C@H](O)CO)c1ccc(F)c(F)c1Nc1ccc(I)cc1F", "values": [{"measurement": "percent Bodipy-positive cells", "setting": "[5]", "value": "11.5 ± 2.9", "unit": "%"}, {"measurement": "percent Bodipy-positive cells", "setting": "[6]", "value": "10.5% and 17.7%"}, {"measurement": "percent Bodipy-positive cells", "setting": "[7]", "value": "10.7% and 33%"}, {"measurement": "percent Bodipy-positive cells", "setting": "[3]", "value": "7.29 ± 0.67", "unit": "%"}]}
{"smiles": "CC(C)c1cc(-c2ccc(F)c3ccccc23)nc(N)n1", "values": [{"measurement": "percent Bodipy-positive cells", "setting": "[3]", "value": "15.8 ± 6.3", "unit": "%"}, {"measurement": "percent Bodipy-positive cells", "setting": "[1]", "value": "18 ± 3.3", "unit": "%"}]}
{"smiles": "C[C@H](C(=O)O)c1ccc(-c2ccccc2)c(F)c1", "note": "[(S)-Flurbiprofen]", "values": [{"measurement": "percent Bodipy-positive cells", "setting": "[2]", "value": "16.5 ± 5.8", "unit": "%"}]}
{"smiles": "O=C1C[C@@H]2[C@@H](/C=C/[C@@H](O)COc3cccc(C(F)(F)F)c3)[C@H](O)C[C@@H]2O1", "note": "[Fluprostenol Lactone Diol]", "values": [{"measurement": "percent Bodipy-positive cells", "setting": "[2]", "value": "7.07 ± 1.4", "unit": "%"}]}
{"smiles": "COc1ccc(S(=O)(=O)N(C(C)=O)c2ccccc2/C=C/c2cc[n+]([O-])cc2)cc1", "values": [{"measurement": "percent Bodipy-positive cells", "setting": "[5]", "value": "20.3 ± 20", "unit": "%"}, {"measurement": "percent Bodipy-positive cells", "setting": "[6]", "value": "10.2 ± 2.8", "unit": "%"}, {"measurement": "percent Bodipy-positive cells", "setting": "[7]", "value": "13.9 ± 6.1", "unit": "%"}, {"measurement": "percent Bodipy-positive cells", "setting": "[3]", "value": "20.1 ± 1.9", "unit": "%"}, {"measurement": "percent Bodipy-positive cells", "setting": "[1]", "value": "53.7% and 37.4%"}]}
{"smiles": "Cc1c(F)cc(C(=O)NC2CC2)cc1-c1ccc(C(=O)NCC(C)(C)C)cn1", "values": [{"measurement": "percent Bodipy-positive cells", "setting": "[3]", "value": "37.2 ± 8.9", "unit": "%"}, {"measurement": "percent Bodipy-positive cells", "setting": "[1]", "value": "43.8 ± 2.1", "unit": "%"}]}
{"smiles": "Cc1c(F)cc(C(=O)NC2CC2)cc1-c1ccc(C(=O)NCC(C)(C)C)cn1", "note": "[Losmapimod]", "values": [{"measurement": "percent Bodipy-positive cells", "setting": "[5]", "value": "13.7 ± 3.3", "unit": "%"}, {"measurement": "percent Bodipy-positive cells", "setting": "[6]", "value": "9.12 ± 0.61", "unit": "%"}, {"measurement": "percent Bodipy-positive cells", "setting": "[7]", "value": "6.35 ± 2.2", "unit": "%"}, {"measurement": "percent Bodipy-positive cells", "setting": "[1]", "value": "7.83 ± 3.8", "unit": "%"}]}
{"smiles": "O=C(NCc1ccc(Cl)c(Cl)c1)O[C@H]1CCc2ccccc21", "values": [{"measurement": "percent Bodipy-positive cells", "setting": "[2]", "value": "16.1 ± 3", "unit": "%"}]}
{"smiles": "CC(=O)c1ccc(N2CCOCC2)cc1O", "note": "[DNA-PK Inhibitor III]", "values": [{"measurement": "percent Bodipy-positive cells", "setting": "[3]", "value": "9.31 ± 1", "unit": "%"}]}
{"smiles": "CCCCCCCCCCCCCCCC(=O)OC[C@@H](O)COP(=O)(O)O", "note": "[1-Palmitoyl Lysophosphatidic Acid (sodium salt)]", "values": [{"measurement": "percent Bodipy-positive cells", "setting": "[2]", "value": "10.1 ± 1.1", "unit": "%"}]}
